Measured values taken from PubChem BioAssay (EPA / NIEHS).
Several values for one entry are separate records, joined by “and”; a condition that tells them apart may be missing. Equal values may be shown once. The inconclusive results got no clear call from the source; some entries with a clear call stand among them for comparison. A potency beside an inconclusive call is a rough fit, not a confirmed value. Activity calls are given as the source filed them. The calls were made as follows: active = hit-call score of the fitted dose curve at least 0.9, where 1 is the maximum; inconclusive = response in the unintended direction; inactive = score below 0.9.

Amino acid sequences for entries named in this document (tags omitted). A change or cut given only in a name is not applied to a line headed by its entry.
UniProt P37231: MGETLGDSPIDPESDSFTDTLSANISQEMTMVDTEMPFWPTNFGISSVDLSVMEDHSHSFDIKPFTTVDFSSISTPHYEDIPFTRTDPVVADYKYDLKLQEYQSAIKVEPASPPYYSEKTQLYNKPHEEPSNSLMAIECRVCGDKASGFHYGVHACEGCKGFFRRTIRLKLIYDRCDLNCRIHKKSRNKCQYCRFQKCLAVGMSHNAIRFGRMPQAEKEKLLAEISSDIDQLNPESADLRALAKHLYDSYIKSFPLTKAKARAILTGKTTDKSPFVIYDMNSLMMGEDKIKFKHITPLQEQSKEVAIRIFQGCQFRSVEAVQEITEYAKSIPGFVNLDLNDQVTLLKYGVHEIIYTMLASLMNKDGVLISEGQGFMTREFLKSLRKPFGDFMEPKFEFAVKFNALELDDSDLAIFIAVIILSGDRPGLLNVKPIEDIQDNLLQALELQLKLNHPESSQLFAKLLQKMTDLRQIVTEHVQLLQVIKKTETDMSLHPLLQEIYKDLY
UniProt P13631, whole entry, looked up: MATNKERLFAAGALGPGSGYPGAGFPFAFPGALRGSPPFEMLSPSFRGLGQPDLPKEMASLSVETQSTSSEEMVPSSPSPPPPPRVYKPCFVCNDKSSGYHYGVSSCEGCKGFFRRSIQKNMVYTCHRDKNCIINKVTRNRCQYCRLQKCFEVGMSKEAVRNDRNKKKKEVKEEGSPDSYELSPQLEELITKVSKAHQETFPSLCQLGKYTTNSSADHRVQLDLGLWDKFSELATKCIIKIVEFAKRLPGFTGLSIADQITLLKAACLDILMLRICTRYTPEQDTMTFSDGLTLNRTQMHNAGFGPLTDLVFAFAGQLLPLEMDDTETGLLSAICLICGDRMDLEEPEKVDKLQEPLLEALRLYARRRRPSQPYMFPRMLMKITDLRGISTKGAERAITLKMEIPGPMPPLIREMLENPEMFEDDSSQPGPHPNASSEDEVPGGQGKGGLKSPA
UniProt P51449: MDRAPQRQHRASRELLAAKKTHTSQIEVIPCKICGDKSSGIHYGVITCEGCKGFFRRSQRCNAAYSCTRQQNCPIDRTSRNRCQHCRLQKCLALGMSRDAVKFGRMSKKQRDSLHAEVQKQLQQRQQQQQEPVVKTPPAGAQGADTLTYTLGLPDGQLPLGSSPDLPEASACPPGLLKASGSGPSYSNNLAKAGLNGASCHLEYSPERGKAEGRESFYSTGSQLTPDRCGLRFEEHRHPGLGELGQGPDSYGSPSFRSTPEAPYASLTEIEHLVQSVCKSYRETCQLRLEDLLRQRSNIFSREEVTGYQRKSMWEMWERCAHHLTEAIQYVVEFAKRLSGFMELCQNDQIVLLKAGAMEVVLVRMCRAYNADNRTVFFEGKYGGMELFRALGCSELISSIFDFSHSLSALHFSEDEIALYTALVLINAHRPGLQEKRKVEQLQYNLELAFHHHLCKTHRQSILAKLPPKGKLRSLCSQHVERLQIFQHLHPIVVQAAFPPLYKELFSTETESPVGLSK
UniProt P28702: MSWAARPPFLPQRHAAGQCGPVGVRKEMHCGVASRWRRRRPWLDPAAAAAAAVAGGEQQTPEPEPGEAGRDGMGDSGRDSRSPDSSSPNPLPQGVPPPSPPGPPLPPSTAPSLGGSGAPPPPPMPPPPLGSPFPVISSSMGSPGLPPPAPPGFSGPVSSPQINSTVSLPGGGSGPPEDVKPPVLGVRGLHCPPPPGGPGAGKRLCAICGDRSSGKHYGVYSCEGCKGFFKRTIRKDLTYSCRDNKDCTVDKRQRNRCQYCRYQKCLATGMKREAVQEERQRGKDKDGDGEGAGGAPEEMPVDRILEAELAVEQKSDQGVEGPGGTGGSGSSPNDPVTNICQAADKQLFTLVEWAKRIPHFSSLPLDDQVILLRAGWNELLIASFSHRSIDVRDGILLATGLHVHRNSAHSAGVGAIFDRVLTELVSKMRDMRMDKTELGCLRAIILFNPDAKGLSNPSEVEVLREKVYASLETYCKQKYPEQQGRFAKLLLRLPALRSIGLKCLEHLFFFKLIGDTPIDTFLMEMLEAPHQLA
UniProt P11473: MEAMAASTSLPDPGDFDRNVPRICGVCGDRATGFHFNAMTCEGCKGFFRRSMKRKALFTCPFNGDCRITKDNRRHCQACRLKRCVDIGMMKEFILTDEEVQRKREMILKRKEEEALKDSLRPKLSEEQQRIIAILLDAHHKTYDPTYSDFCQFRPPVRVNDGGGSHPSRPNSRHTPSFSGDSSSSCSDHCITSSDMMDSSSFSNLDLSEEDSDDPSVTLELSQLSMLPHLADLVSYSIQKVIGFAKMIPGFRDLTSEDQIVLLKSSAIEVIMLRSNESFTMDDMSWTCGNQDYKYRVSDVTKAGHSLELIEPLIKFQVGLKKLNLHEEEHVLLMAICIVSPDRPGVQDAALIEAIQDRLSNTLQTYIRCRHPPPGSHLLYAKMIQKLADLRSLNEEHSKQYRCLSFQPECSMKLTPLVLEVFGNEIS
UniProt Q92753: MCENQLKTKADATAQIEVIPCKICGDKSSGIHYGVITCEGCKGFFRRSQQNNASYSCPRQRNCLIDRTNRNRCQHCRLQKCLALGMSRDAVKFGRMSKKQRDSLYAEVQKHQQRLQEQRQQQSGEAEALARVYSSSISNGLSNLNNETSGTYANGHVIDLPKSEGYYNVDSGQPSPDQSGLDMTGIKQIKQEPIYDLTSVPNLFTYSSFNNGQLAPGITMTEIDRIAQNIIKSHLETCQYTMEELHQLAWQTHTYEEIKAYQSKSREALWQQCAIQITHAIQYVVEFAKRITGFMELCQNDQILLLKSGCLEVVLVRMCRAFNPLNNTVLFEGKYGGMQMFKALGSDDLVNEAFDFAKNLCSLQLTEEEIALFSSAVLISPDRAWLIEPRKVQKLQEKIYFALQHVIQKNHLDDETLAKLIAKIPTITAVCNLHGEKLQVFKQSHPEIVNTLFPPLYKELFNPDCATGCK
UniProt P19793: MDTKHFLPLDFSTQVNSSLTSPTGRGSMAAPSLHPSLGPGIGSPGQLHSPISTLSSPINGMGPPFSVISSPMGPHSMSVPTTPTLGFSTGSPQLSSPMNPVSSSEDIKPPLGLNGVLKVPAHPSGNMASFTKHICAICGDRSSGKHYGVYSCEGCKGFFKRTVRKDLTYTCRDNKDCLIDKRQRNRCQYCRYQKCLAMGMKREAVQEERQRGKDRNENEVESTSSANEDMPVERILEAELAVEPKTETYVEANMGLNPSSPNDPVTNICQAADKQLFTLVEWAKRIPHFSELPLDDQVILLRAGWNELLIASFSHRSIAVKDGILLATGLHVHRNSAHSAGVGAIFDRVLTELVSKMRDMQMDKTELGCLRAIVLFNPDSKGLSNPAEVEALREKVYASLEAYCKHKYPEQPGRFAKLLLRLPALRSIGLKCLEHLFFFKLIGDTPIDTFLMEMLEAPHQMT
UniProt P10827: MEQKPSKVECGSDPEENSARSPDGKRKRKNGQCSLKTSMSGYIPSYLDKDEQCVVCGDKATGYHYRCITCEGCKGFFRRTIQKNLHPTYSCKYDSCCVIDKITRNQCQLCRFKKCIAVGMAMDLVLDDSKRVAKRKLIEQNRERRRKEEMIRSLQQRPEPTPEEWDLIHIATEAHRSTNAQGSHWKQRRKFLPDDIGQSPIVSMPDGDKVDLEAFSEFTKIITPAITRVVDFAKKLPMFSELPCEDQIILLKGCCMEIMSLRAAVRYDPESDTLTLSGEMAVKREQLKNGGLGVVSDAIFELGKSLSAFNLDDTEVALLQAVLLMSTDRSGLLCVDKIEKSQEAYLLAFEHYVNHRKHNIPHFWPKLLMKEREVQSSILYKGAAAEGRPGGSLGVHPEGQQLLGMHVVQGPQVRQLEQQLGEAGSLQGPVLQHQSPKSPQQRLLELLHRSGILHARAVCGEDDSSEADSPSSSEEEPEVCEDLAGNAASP

Assays:
[1] = target: Peroxisome proliferator-activated receptor gamma (Homo sapiens) (UniProt P37231); assay: ATG_PPARg_TRANS: Attagene TRANS-FACTORIAL HepG2 Assay for human Peroxisome Proliferator-activated Receptor-gamma (PPARg) (AID 2283007)
Procedure, shortened: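 Chimeric NR-Gal4 transactivation is measured in transiently transfected HepG2 cells by reporter mRNA induction at 24 h. Detection uses RT-PCR with fluorescent labelling and capillary electrophoresis; DMSO defines baseline.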

[2] = target: human Retinoic Acid Receptor gamma (RARg), RARG (gene 5916) (UniProt P13631); assay: ATG_RARg_TRANS: Attagene TRANS-FACTORIAL HepG2 Assay for human Retinoic Acid Receptor gamma (RARg) (AID 2283009);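 as to AC50: AC50 is for reporter induction above DMSO meaning RARg activation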
Procedure, shortened: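 Readout: reporter transcript levels via RT-PCR, 6-FAM primer-extension labelling, HpaI digestion and capillary electrophoresis. Cells: HepG2 carrying transfected RARg-GAL4 chimera plus UAS reporter set. Dosing 24 h; DMSO negative control.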

[3] = target: human RAR-related Orphan Receptor gamma (RORg), RORC (gene 6097) (UniProt P51449); assay: ATG_RORg_TRANS: Attagene TRANS-FACTORIAL HepG2 Assay for human RAR-related Orphan Receptor gamma (RORg) (AID 2283011);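 as to AC50: potency for induction of reporter transcripts above DMSO so activators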
Procedure, shortened: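 Readout: reporter transcript induction (RT-PCR, fluorescent primer extension, capillary electrophoresis) after 24 h compound exposure of transiently transfected HepG2 cells carrying a RORg-Gal4 chimera and GAL4-UAS reporters; DMSO served as baseline, with increasing signal fitted.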

[4] = target: human Retinoid X Receptor beta (RXRb), RXRB (gene 6257) (UniProt P28702); assay: ATG_RXRb_TRANS: Attagene TRANS-FACTORIAL HepG2 Assay for human Retinoid X Receptor beta (RXRb) (AID 2283013)
Procedure, shortened: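 Read-out: reporter mRNA induction via RT-PCR plus capillary electrophoresis fluorescence, analysed as signal increase relative to DMSO. Cells were human HepG2, transiently transfected with GAL4-UAS reporter constructs and chimeric receptor-Gal4 fusions, dosed for 24 h.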

[5] = target: human Vitamin D Receptor (VDR), VDR (gene 7421) (UniProt P11473); assay: ATG_VDR_TRANS: Attagene TRANS-FACTORIAL HepG2 Assay for human Vitamin D Receptor (VDR) (AID 2283022)
Procedure, shortened: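 HepG2 cells were transiently transfected with multiple GAL4-UAS reporter units, so signal reflects exogenous chimeric receptor-Gal4 activity. After 24 h compound exposure, reporter mRNA was measured by RT-PCR, fluorescent labelling and capillary electrophoresis, fitted for gain of signal versus DMSO.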

[6] = target: human RAR-related Orphan Receptor beta (RORb), RORB (gene 6096) (UniProt Q92753); assay: ATG_RORb_TRANS: Attagene TRANS-FACTORIAL HepG2 Assay for human RAR-related Orphan Receptor beta (RORb) (AID 2283010);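 as to AC50: potency for increased reporter mRNA meaning activation of RORb-Gal4 chimera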
Procedure, shortened: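 HepG2, transient MRTU transfection (GAL4-UAS reporters, exogenous NR-Gal4 chimeras); 24 h compound exposure; total RNA → RT-PCR → 6-FAM primer extension → HpaI digest → CE fluorescence. Positive direction vs DMSO baseline.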

[7] = target: Retinoic acid receptor RXR-alpha (Homo sapiens) (UniProt P19793); assay: ATG_RXRa_TRANS: Attagene TRANS-FACTORIAL HepG2 Assay for human Retinoid X Receptor alpha (RXRa) (AID 2283012)
Procedure, shortened: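 Read-out: fluorescent reporter-transcript fragments quantified by capillary electrophoresis after RT-PCR. Transiently transfected HepG2 cells carrying GAL4-UAS reporters and NR-GAL4 chimeras were exposed to chemical for 24 h; activity scored as increase over DMSO.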

[8] = target: human Thyroid Receptor alpha (THRa1), THRA (gene 7067) (UniProt P10827); assay: ATG_THRa1_TRANS: Attagene TRANS-FACTORIAL HepG2 Assay for human Thyroid Receptor alpha (THRa1) (AID 2283014)
Procedure, shortened: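 HepG2 cells transiently transfected with multiplexed GAL4-UAS reporter units for exogenous chimeric THRa1-Gal4; reporter mRNA measured 24 h after dosing by RT-PCR, 6-FAM labelling, HpaI digestion and capillary electrophoresis. Gain-of-signal fitted versus DMSO baseline.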

With `CO[C@H]1/C=C/O[C@@]2(C)Oc3c(C)c(O)c4c(O)c(c(/C=N/N5CCN(C)CC5)c(O)c4c3C2=O)NC(=O)/C(C)=C\C=C\[C@H](C)[C@H](O)[C@@H](C)[C@@H](O)[C@@H](C)[C@H](OC(C)=O)[C@@H]1C` the AC50 [1] was inconclusive: 62.5 µM, the AC50 [2] was inconclusive: 62.5 µM and inconclusive: 60 µM and the outcome [3] was “inactive”. The AC50 [4] was inconclusive: 62.5 µM and inconclusive: 60 µM and the outcome [5] was “inactive”.
`C=C[Si](OCCOC)(OCCOC)OCCOC` was tested, and the AC50 [1] was inconclusive: 100 µM, the AC50 [2] was inconclusive: 100 µM and the AC50 [6] was inconclusive: 100 µM. For the same compound, the AC50 [4] was inconclusive: 36.9 µM.
`CC1=CP(=O)(c2ccccc2)CC1` (stereo not given) was tested, and the AC50 [1] was inconclusive: 100 µM, the outcome [2] was “inactive” and the AC50 [6] was inconclusive: 100 µM. The AC50 [5] was inconclusive: 6.07 µM.
`C=C(C)OC(C)=O` was tested, and the AC50 [1] was inconclusive: 100 µM, the outcome [2] was “inactive” and the outcome [3] was “inactive”. For the same compound, the AC50 [7] was inconclusive: 2.92 µM, the AC50 [4] was inconclusive: 100 µM and the AC50 [8] was inconclusive: 100 µM. The AC50 [5] was inconclusive: 100 µM.
With `CCc1cccc(C)c1N(C(=O)C(=O)O)C(C)COC` (stereo not given) the outcome [1] was “inactive”, the AC50 [2] was inconclusive: 100 µM and the outcome [6] was “inactive”. The AC50 [8] was inconclusive: 0.0845 µM and the AC50 [5] was inconclusive: 100 µM.
With `Cc1cc(CCC(=O)OCCOCCOCCOC(=O)CCc2cc(C)c(O)c(C(C)(C)C)c2)cc(C(C)(C)C)c1O` the AC50 [1] was active: 24.2 µM, the outcome [2] was “inactive” and the AC50 [6] was inconclusive: 89 µM. For the same compound, the AC50 [7] was inconclusive: 0.411 µM and the outcome [8] was “inactive”.
In the case of `NCC(F)(F)C(F)(F)C(F)(F)C(F)(F)C(F)(F)C(F)(F)F`, the outcome [1] is reported as “inactive”, the AC50 [2] is reported as inconclusive: 182 µM and the AC50 [6] is reported as inconclusive: 100 µM. The AC50 [8] was inconclusive: 100 µM and the outcome [5] was “inactive”.
With `COC(=O)/C=C/C(C)=C\C=C\C(C)=C\C=C\C=C(C)\C=C\C=C(C)\C=C\C(=O)O` the AC50 [1] was active: 27.9 µM, the AC50 [2] was inconclusive: 166 µM and the outcome [6] was “inactive”. The AC50 [4] was inconclusive: 100 µM and the AC50 [8] was inconclusive: 0.0929 µM.
With `CCOC(=O)OC(=O)OCC` the AC50 [1] was inconclusive: 100 µM, the outcome [2] was “inactive” and the AC50 [6] was inconclusive: 100 µM. The AC50 [4] was inconclusive: 100 µM and the AC50 [5] was inconclusive: 26.5 µM.
